The values are deposited in ChEMBL (CHEMBL3988442, “University of Dundee, Small-Polar-MMV Screening Library” (2021)).

A: 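Growth of Mycobacterium tuberculosis over 4 days (cholesterol / DPPC medium with tyloxapol); the read-out is not stated. Compounds at 50 µM. Higher reads as more growth inhibition (inferred: compounds with an IC50 in retests scored well above the rest). Size under these conditions: about 69,000 compounds, about 370 of them at 50% or above in at least one test.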
B: 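Phenotypic screen: M. tuberculosis growth, glucose 7H9 medium, 3 days; the read-out is not stated. Concentration: 50 µM. Direction is inferred from retests: higher values go with more growth inhibition. Of about 69,000 compounds tested this way, about 760 (1.1%) reached 50% or more in at least one test.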

Results are given as percent effect.
The record does not define 0% and 100%; most values in the screen are far below 50% and negative numbers occur (in some assays of this library far below -100).
The compounds are a random part of those screened.
Two or more numbers in one place are separate tests of the same structure; such repeats can differ widely.

structure,A,B
Cc1nnc(NCCC(=O)NCc2ccccc2)c(C#N)c1C,-7.844,-7.542
O=C(c1cc(=O)n(-c2ccccc2)[nH]1)N1CCOCC(O)C1 (stereo not drawn),-12.51,-11.32
[H][C@]12CC[C@]([H])(CN(C(=O)c3ccncc3)C1)N(S(=O)(=O)c1cccnc1)C2,-10.03,-20.4
Cc1cc(NC(=O)C2CN(Cc3ccccc3)CCO2)ccn1 (stereo not drawn),2.932 & -7.246,-31.21
CN(C)C(=O)C1CN(Cc2ccccc2)CCN(S(C)(=O)=O)C1 (stereo not drawn),-8.564,10.81
Cc1cc(NC(=O)CN2CCCC2c2noc(C(C)C)n2)no1 (stereo not drawn),14.35,10.86
Cc1ccc(C(=O)N2CCC3(CC2)C(=O)NCCN3C)cc1O,17.47,9.711
CC(C)c1ccc(CN2CCC3(CCCN(c4nncs4)C3)C2)cc1.O=C(O)C(F)(F)F (stereo not drawn),19.98,41.58
Cc1cc(-c2cnc(NC3CC3)nc2-c2ccc(C)o2)on1,23.83,45.17
C=C(C)CN(CC)S(=O)(=O)c1c(F)cc(NC(C)=O)cc1F,-3.417,18.96
COc1ccc(CNC(C)c2cnn(C)c2)cc1OC1CCCC1 (stereo not drawn),-36.77,15.78
COc1ccc(CNCC2CN(C3CC3)CCO2)cc1F (stereo not drawn),10.42,11.19
O=C(CCC(F)(F)F)N1CCCC(CO)(CC2CC2)C1 (stereo not drawn),51.76,51.95 & 41.89
CCc1noc(C(C)N2CCN(Cc3noc(C)n3)CC2)n1 (stereo not drawn),-15.47,-16.92
CCc1cnccc1C(=O)NC1CCN(Cc2ccccc2F)CC1,-1.727,-6.132
COc1ccc(C2CCCN2C(=O)c2ccc(=O)n(C)c2)cc1OC (stereo not drawn),-29.94,-22.59
O=C(Cn1cc(I)cn1)N1CCOCC1,10.99,1.342 & -7.124
NC(=O)c1noc(Cn2ccc3ccccc3c2=O)n1,-6.728,32.35
CCOCc1cncc2c1CCN(S(=O)(=O)c1cccc(C)c1)C2,0.1797,-14.41 & -1.001
CC(C)N(C)Cc1cn2c(n1)CN(C(=O)Cc1ccsc1)CC2.O=C(O)C(F)(F)F,-18.45,-8.661
CCCn1c(C)c(CC(=O)NC)c2c1CC(C)(C)CC2=O,-5.02,-4.424
CCC1c2ccc(C)n2CCN1C(=O)Cn1cnc2sc(C)cc2c1=O (stereo not drawn),3.893 & 6.641,-6.653
Cc1ccc(CN2CCC(F)(F)C3(CCN(c4cnccn4)C3)C2)o1.O=C(O)C(F)(F)F.O=C(O)C(F)(F)F (stereo not drawn),33.36 & 27.93,28.63
CC(C)Cn1cncc1CNC1CCSCC1,-23.82,-9.456 & -6.439
Cc1ccnc2c1NC(=O)CN2C(=O)CCc1ccccc1,5.779,17.14 & 15
COc1ncc(CN2CCC3(CCCN(CC4CCC4)C3)C2)cn1 (stereo not drawn),-5.048,34
COc1cccc(CN(Cc2ccco2)Cc2[nH]cnc2C)c1.O=C(O)CC(O)(CC(=O)O)C(=O)O,-8.646 & -5.589,-8.374
COc1cccc(CC(=O)N2CCc3ncnc(NC(C)C)c3CC2)c1,-9.431,5.252
Cc1nnc(NC(=O)CN2CCCC2c2c(C)nn(C)c2C)s1 (stereo not drawn),-36.3,-20.65
COc1ccc(NC(=O)CCN2CC=C(c3cnn(C)c3)CC2)c(C)c1,-0.7672,-1.74
O=C(O)C(F)(F)F.O=C(O)C(F)(F)F.[H][C@@]12CC(=O)N(Cc3cccc(C)n3)[C@@]1([H])CCN2Cc1ccc(OC)cc1,-17.87 & 1.24,7.363
O=C(NCCN1CCc2ccccc21)c1cc(-c2ccc(O)cc2)n[nH]1,-12.22,-6.285
CC(NC(=O)C(C)(C)C)c1cc(O)nc(-c2cccnc2)n1 (stereo not drawn),-5.732 & -13.44,-5.061
CCS(=O)(=O)N(C)C1CCN(c2cccc(F)c2C(C)=O)CC1,11.05 & -4.33,27.85
CC(=O)c1ccc(CN2CC(Oc3ccccc3C)C2)cc1,10.4,1.055 & 22.14
Cc1ccc(C(CCNCCN(C)C)C2CCOC(C)(C)C2)cc1.O=C(O)C(=O)O (stereo not drawn),-30.59,20.7 & 5.009
O=C(O)C(F)(F)F.O=C(O)C(F)(F)F.O=C(O)C(F)(F)F.[H][C@@]12CN(Cc3cccnc3)C[C@]1([H])[C@@H](OC)CCN2Cc1c(C)noc1C,2.247,12.14
CCn1cnnc1C1CCN(C(=O)c2cnc(C3CC3)s2)CC1,11.18,14.71
Cc1cccc(NC(=O)CN(C)C(=O)c2ccc(-n3cccc3)nc2)n1,-2.241,-16.87
CCNc1ncc(C(=O)NCc2ccc(F)c(C(F)(F)F)c2)cn1,-31.17,16.81
CCn1ccnc1CN1CCN(C(C)C(=O)N2CCC(C)CC2)CC1 (stereo not drawn),-7.077,31.41
CC(C)n1ccc(CN2CCN(c3cc(NC4CC4)nc(N)n3)CC2)c1,-19.02,9.537
O=C(NC1CCN(c2snc3ccccc23)CC1)C1CCC1,2.817,19.68
CN1CCC(CNC(=O)Cc2ccc(N(C)C)cc2)CC1,5.301,-19.86
Cn1ccnc1CN(CCO)C(=O)c1cnc2ccccc2c1,3.68,-2.352
CCOc1ccccc1-n1c(C2CCC2)n[nH]c1=O,-17.93,8.223